Measurements as given in patent publication US20210017287A1 (published 2021).
Substitutions are numbered along the chain they refer to. Results are given in words; binding and its absence hold for the method and conditions named. Some entries that bind do so weakly or less than the wild type. For some assays here: Tags and fused reporters may be left off the sequences shown.

Legend:
[1] = target: T1, TNFRSF25-Fc fusion protein (UniProt Q93038 25-199, limits assumed, biotinylated in the capture ELISA (site not stated)); assay: ELISA of scFv clones (FIG. 10)
T1 construct: also called TNFRSF25-Fc protein; biotinylated antigen protein; not shown: Fc part
T1 sequence (looked up): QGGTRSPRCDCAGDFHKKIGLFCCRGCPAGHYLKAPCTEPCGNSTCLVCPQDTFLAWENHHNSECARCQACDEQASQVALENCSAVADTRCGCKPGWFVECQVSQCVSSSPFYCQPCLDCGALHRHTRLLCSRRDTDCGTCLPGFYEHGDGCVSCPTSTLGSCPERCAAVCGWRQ

[2] = target: T1, TNFRSF25-Fc fusion protein; assay: ELISA of combinatorial scFv clones (FIG. 10)
[3] = target: T1, TNFRSF25-Fc fusion protein; assay: ELISA on TNFRSF25-Fc (FIG. 10; data of the scFv clones)
[4] = target: T2, human TNFRSF25 expressed on p815 cells (human) (UniProt Q93038); assay: flow cytometry competition on p815-hDR3 cells
T2 sequence: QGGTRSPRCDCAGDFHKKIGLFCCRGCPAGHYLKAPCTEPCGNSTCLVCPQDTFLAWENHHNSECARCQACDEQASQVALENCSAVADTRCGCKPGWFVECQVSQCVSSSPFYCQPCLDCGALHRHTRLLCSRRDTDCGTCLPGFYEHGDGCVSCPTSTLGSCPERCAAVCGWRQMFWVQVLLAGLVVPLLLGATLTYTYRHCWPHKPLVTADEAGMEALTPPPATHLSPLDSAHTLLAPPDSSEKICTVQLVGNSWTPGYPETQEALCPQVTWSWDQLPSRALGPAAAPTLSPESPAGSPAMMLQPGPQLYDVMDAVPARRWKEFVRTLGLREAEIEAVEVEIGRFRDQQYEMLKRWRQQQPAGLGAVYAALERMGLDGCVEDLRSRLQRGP

[5] = target: T2, human TNFRSF25 expressed on p815 cells (human); assay: flow cytometry competition against 4C12-AF647 on p815-hDR3 cells (FIG. 13B)
[6] = target: T2, human TNFRSF25 expressed on p815 cells (human); assay: flow cytometry competition against hTL1A-Ig-AF647 on p815-hDR3 cells (FIG. 13A)
[7] = target: T1, TNFRSF25-Fc fusion protein; assay: capture ELISA of scFv
[8] = target: T1, TNFRSF25-Fc fusion protein; assay: ELISA on TNFRSF25-Fc (data of the scFv clones)
[9] = target: T1, TNFRSF25-Fc fusion protein; assay: ELISA on TNFRSF25-Fc (results of Example 3 told in the description)

Measured: binding

B1: 1F10 (scFv, V domains shown)
VH: EVQLVESGGGLSQPGNSLQLSCEASGFTFSNHDLNWVRQAPGKGLEWVAYISSASGLISYADAVRGRFTISRDNAKNSLFLQMNNLKSEDTAMYYCARDPAYTGLYALDFWGQGTQVTVSS
VL: QPVLTQSPSASASLSGSVKLTCTLSSELSNFTIVWYQQRPDKAPKYVMYLKSDGSHSKGDGIPDRFSGSSSGAHRYLSISNVQSEDDATYFCGAGYTLASQYGWVFGSGTKVTVL
notes: scFv; Frameworks and unchanged CDRs are those of the parental clone
binds: [1] | [2] | [3]

B2: W3072-z4C12-m4, IgG1 format (M4-uIgG1L) (antibody, V domains shown)
VH: B1 VH
VL: B1 VL with N30W, F31Y, S100G
binds: [4] | [5] | [6]

B3: W3072-z4C12-m5, IgG1 format (M5-uIgG1L) (antibody, V domains shown)
VH: B1 VH with A101P, T103S
VL: B1 VL with N30W, F31Y, S100G
binds: [4] | [5] | [6]

B4: W3072-z4C12-m3, IgG1 format (M3-uIgG1L) (antibody, V domains shown)
VH: B1 VH
VL: B1 VL with N30G, S100N
binds: [5] | [6]

B5: 9A5 (scFv, V domains shown)
VH: B1 VH
VL: B1 VL with N30G, S100N
notes: as for B1
binds: [1] | [2] | [3]

B6: 42G2 (scFv, V domains shown)
VH: B1 VH with A101P, T103S
VL: B1 VL with N30W, F31Y, S100G
notes: scFv
binds: [7] | [1] | [8] | [3] | [9]

B7: 5A6 (scFv, V domains shown)
VH: B1 VH with A101P
VL: B1 VL with S100N
notes: as for B1
binds: [1] | [2] | [3]

B8: 9G2 (scFv, V domains shown)
VH: B1 VH
VL: B1 VL with N30W, F31Y, S100G
notes: as for B1
binds: [1] | [8] | [3] | [9]
